Data reported in US20220195049A1 (Scripps Research, published 2022).
Results are given in words; binding and its absence hold for the method and conditions named. Some binding calls cover weakened binding; strength is not graded here.

Protein sequences, listed by entry. Tags and fused reporters are not part of them. Residues count along the entry.
UniProt Q9NZQ7, residues 19-239: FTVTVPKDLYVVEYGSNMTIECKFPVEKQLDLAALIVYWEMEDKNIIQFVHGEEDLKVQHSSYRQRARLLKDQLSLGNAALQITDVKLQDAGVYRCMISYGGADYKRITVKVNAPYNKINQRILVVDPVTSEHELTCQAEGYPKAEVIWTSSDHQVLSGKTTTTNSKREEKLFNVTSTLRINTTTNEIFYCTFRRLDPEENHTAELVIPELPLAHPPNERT

B1: KL001-26 (antibody, V domains shown)
VH: QVQLVESGAEVKKPGSSVKVSCKASGGTFSSYAISWVRQAPGQGLEWMGRIIPILGIANYAQKFQGRVTVTADKSTSTAYMELSSLRSEDTAVYYCARSGYGYAYGSFDYWGQGTLVTVSS
VL: QLVLTQPPSVSGAPGQTVTISCTGPTIGQGYDVHWYQQLPGAAPKLLIYGNLNRPSGVPDRFSGSKSGTSASLAITDLQAEDEADYYCQSYDSRLGVVFGGGTKLTVL
B2: KL001-25 (antibody, V domains shown)
VH: QVQLVESGAEVKKPGSSVKVSCKASGGTFSSYAISWVRQAPGQGLEWMGRIIPILGIANYAQKFQGRVTVTADKSTSTAYMELSSLRSEDTAVYYCARSGYGYAYGSFDYWGQGTLVTVSS
VL: QLVLTQPPSVSGAPGQTVTISCTQPTIGAGYDVHWYQQLPGAAPKLLIYGNLNRPSGVPDRFSGSKSGTSASLAITDLQAEDEADYYCQSMDSTLGVVFGGGTKLTVL
B3: KL001-05 (antibody, V domains shown)
VH: QVQLVESGAEVKKPGSSVKVSCKASGGTFSSYAISWVRQAPGQGLEWMGRIIPILGIANYAQKFQGRVTVTADKSTSTAYMELSSLRSEDTAVYYCARSGYGYAYGSFDMWGQGTLVTVSS
VL: QLVLTQPPSVSGAPGQTVTISCTGPTIGAGYDVHWYQQLPGAAPKLLIYGNLNRPSGVPDRFSGSKSGTSASLAITDLQAEDEADYYCQSYDSRLGVVFGGGTKLTVL
B4: KL001-03 (antibody, V domains shown)
VH: QVQLVESGAEVKKPGSSVKVSCKASGGTFSSYAISWVRQAPGQGLEWMGRIIPILGIANYAQKFQGRVTVTADKSTSTAYMELSSLRSEDTAVYYCARSGPGYAYGSFDYWGQGTLVTVSS
VL: QLVLTQPPSVSGAPGQTVTISCTGPTIGAGYDVHWYQQLPGAAPKLLIYGNLNRPSGVPDRFSGSKSGTSASLAITDLQAEDEADYYCQSYDSTQGVVFGGGTKLTVL
B5: KL001-13 (antibody, human IgG1, kappa, V domains shown)
VH: QVQLVESGAEVKKPGSSVKVSCKASGGTFSSYAISWVRQAPGQGLEWMGRIIPILGIANYAQKFQGRVTVTADKSTSTAYMELSSLRSEDTAVYYCARSGYGYAYGSFDYWGQGTLVTVSS
VL: QLVLTQPPSVSGAPGQTVTISCTGQTIGAGYDVHWYQQLPGAAPKLLIYGNLNRPSGVPDRFSGSKSGTSASLAITDLQAEDEADYYCQSYDSRLGVVFGGGTKLTVLR
notes: also called KL001-13 candidate antibody
B6: KL001-27 (antibody, V domains shown)
VH: QVQLVESGAEVKKPGSSVKVSCKASGGTFSSYAISWVRQAPGQGLEWMGRIIPILGIANYAQKFQGRVTVTADKSTSTAYMELSSLRSEDTAVYYCARSGYGYAYGSFDYWGQGTLVTVSS
VL: QLVLTQPPSVSGAPGQTVTISCTGQTIGAGYDVHWYQQLPGAAPKLLIYGNLNRPSGVPDRFSGSKSGTSASLAITDLQAEDEADYYCQSYDSTDGVVFGGGTKLTVL

target: PD-L1-Fc (PD-L1 antigen protein, extracellular region Met1-Thr239 fused to human Fc) (human) (UniProt Q9NZQ7); assay: competitive ELISA on a PD-L1-coated plate, about 4 more hours in a solution of PD-L1 antigen protein

binding, binds:
B1
B2
B3
B4
B5
B6
